{"source": "paper PMC7862700", "note": "The other results are listed elsewhere or left out. The exact form of the protein is not confirmed."}
{"target": "T1, ELF2 (UniProt Q15723)", "T1 sequence": "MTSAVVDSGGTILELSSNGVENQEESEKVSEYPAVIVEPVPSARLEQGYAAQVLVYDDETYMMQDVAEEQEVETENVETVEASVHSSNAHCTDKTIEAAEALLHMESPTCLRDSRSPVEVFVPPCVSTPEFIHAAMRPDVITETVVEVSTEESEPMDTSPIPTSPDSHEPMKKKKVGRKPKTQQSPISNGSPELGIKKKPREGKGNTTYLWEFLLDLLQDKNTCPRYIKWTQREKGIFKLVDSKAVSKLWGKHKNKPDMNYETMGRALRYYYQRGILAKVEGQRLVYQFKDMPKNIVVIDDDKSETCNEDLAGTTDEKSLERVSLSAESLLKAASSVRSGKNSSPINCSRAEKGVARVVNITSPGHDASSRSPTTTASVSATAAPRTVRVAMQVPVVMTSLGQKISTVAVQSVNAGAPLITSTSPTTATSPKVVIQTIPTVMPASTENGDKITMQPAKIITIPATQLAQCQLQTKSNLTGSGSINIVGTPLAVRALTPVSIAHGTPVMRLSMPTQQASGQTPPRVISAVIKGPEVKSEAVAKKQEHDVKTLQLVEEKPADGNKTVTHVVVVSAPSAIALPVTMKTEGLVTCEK", "assay": "DAPPL (digital affinity profiling via proximity ligation, sequencing)", "conditions": "10 mM Tris-HCl pH 7.5, 50 mM NaCl, 1 mM DTT, 4% glycerol, room temperature, 30 min; GST-TFs on glutathione beads, 16-mer random dsDNA library, 0.1% …; high values mean tight binding; double strand, one strand shown; scale: fold enrichment (6-mer frequency, TF over GST control)"}
{"sequence": "AGATAT", "binding signal": 1.02}
{"sequence": "TAGGAT", "binding signal": 0.99}
{"sequence": "TCGAGT", "binding signal": 0.888}
{"sequence": "GCCGAT", "binding signal": 1.08}
{"sequence": "GGCTTA", "binding signal": 1.02}
{"sequence": "GGATTA", "binding signal": 0.842}
{"sequence": "TGCATT", "binding signal": 1.32}
{"sequence": "ATCGAC", "binding signal": 1.09}
{"sequence": "AGCGAT", "binding signal": 1.01}
{"sequence": "GACTCC", "binding signal": 1.24}
{"sequence": "GTTCAC", "binding signal": 1.2}
{"sequence": "ACTTAG", "binding signal": 1.09}
{"sequence": "ACAGCT", "binding signal": 1.09}
{"sequence": "CGCGCT", "binding signal": 1.17}
{"sequence": "TTGTTC", "binding signal": 1.59}
{"sequence": "TTGAGG", "binding signal": 1.07}
{"sequence": "CATTAT", "binding signal": 1.15}
{"sequence": "TTAGAT", "binding signal": 1.02}
{"sequence": "CGTTTT", "binding signal": 1.24}
{"sequence": "TTTAAC", "binding signal": 1.16}
{"sequence": "CTCTTA", "binding signal": 1.3}
{"sequence": "TCCGCT", "binding signal": 2.71}
{"sequence": "GTTCAA", "binding signal": 1.11}
{"sequence": "TCTGGT", "binding signal": 1.23}
{"sequence": "CTTAAG", "binding signal": 1.04}
{"sequence": "TAACTT", "binding signal": 1.51}
{"sequence": "AGAAAA", "binding signal": 1.01}
{"sequence": "CAACTC", "binding signal": 1.15}
{"sequence": "ATTCCA", "binding signal": 1.14}
{"sequence": "CTGGCA", "binding signal": 1.17}
{"sequence": "GAAAAA", "binding signal": 1.2}
{"sequence": "AAGTAT", "binding signal": 1.55}
{"sequence": "CTCCCA", "binding signal": 1.33}
{"sequence": "TCCCCC", "binding signal": 1.41}
{"sequence": "CTGAAG", "binding signal": 1.06}
{"sequence": "CGAAGT", "binding signal": 0.904}
{"sequence": "AGGTCT", "binding signal": 1.08}
{"sequence": "CTTCCG", "binding signal": 12.8}
{"sequence": "CGTATA", "binding signal": 1.19}
{"sequence": "GATCGA", "binding signal": 0.778}
